## Cleaved PARP in drug-treated melanoma cells

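The test systems are human melanoma cell lines, treated with two drugs together for 72 h and then stained and imaged. Each value is the cleaved-PARP-positive fraction of nuclei relative to DMSO-treated wells, in %, so that 100 equals the control and higher values mean more apoptosis. Concentrations were fixed for each drug; these are the higher of two levels. The file gives one value for each pair and line, without errors, so small differences may be noise. Basal and induced levels differ widely between cell lines.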 This is part of the screen, not chosen by result.

Drug key:
ENMD-2076: Cc1cc(Nc2cc(N3CCN(C)CC3)nc(/C=C/c3ccccc3)n2)n[nH]1 at 0.2 µM
sunitinib: CCN(CC)CCNC(=O)c1c(C)[nH]c(/C=C2\C(=O)Nc3ccc(F)cc32)c1C at 2 µM
U73122: COc1ccc2c(c1)CCC1C2CCC2(C)C(NCCCCCCN3C(=O)C=CC3=O)CCC12 (stereo not given) at 2 µM
L-779450: Oc1cc(-c2nc(-c3ccccc3)[nH]c2-c2ccncc2)ccc1Cl at 1 µM
GW0742: Cc1cc(SCc2sc(-c3ccc(C(F)(F)F)c(F)c3)nc2C)ccc1OCC(=O)O at 10 µM
BI-D1870: CC(C)CCN1c2nc(Nc3cc(F)c(O)c(F)c3)ncc2N(C)C(=O)C1C (stereo not given) at 1 µM
midostaurin: CO[C@@H]1[C@H](N(C)C(=O)c2ccccc2)C[C@H]2O[C@]1(C)n1c3ccccc3c3c4c(c5c6ccccc6n2c5c31)C(=O)NC4 at 0.4 µM

- BI-D1870 and GW0742 | MeWo: 79.4; COLO 792: 26.2; LOX IMVI: 168; SK-MEL-30: 49.3; WM3619: 119; SK-MEL-5: 208
- BI-D1870 and sunitinib | MeWo: 483; COLO 792: 189; LOX IMVI: 191; SK-MEL-30: 127; WM3619: 139; SK-MEL-5: 426
- midostaurin and GW0742 | MeWo: 143; COLO 792: 117; LOX IMVI: 283; SK-MEL-30: 227; WM3619: 143; SK-MEL-5: 678
- L-779450 and sunitinib | MeWo: 235; COLO 792: 111; LOX IMVI: 215; SK-MEL-30: 439; WM3619: 162; SK-MEL-5: 426
- L-779450 and midostaurin | MeWo: 111; COLO 792: 150; LOX IMVI: 165; SK-MEL-30: 153; WM3619: 160; SK-MEL-5: 84.4
- GW0742 and sunitinib | MeWo: 256; COLO 792: 109; LOX IMVI: 115; SK-MEL-30: 102; WM3619: 80.9; SK-MEL-5: 70.2
- sunitinib and midostaurin | MeWo: 124; COLO 792: 276; LOX IMVI: 91.7; SK-MEL-30: 344; WM3619: 176; SK-MEL-5: 115
- midostaurin and ENMD-2076 | MeWo: 107; COLO 792: 132; LOX IMVI: 120; SK-MEL-30: 112; WM3619: 107; SK-MEL-5: 89.3
- U73122 and GW0742 | MeWo: 93.3; COLO 792: 78.7; LOX IMVI: 62.3; SK-MEL-30: 114; WM3619: 121; SK-MEL-5: 49.3
- L-779450 and BI-D1870 | MeWo: 127; COLO 792: 82.1; LOX IMVI: 139; SK-MEL-30: 53.5; WM3619: 223; SK-MEL-5: 181
- ENMD-2076 and BI-D1870 | MeWo: 132; COLO 792: 155; LOX IMVI: 257; SK-MEL-30: 81.5; WM3619: 165; SK-MEL-5: 110
- midostaurin and BI-D1870 | MeWo: 126; COLO 792: 155; LOX IMVI: 171; SK-MEL-30: 123; WM3619: 204; SK-MEL-5: 207
- ENMD-2076 and GW0742 | MeWo: 47.0; COLO 792: 140; LOX IMVI: 90.9; SK-MEL-30: 103; WM3619: 130; SK-MEL-5: 93.6
- sunitinib and U73122 | MeWo: 511; COLO 792: 162; LOX IMVI: 275; SK-MEL-30: 423; WM3619: 231; SK-MEL-5: 103
- midostaurin and U73122 | MeWo: 271; COLO 792: 263; LOX IMVI: 162; SK-MEL-30: 215; WM3619: 181; SK-MEL-5: 162
- U73122 and L-779450 | MeWo: 57.6; COLO 792: 110; LOX IMVI: 131; SK-MEL-30: 97.4; WM3619: 262; SK-MEL-5: 453
- GW0742 and L-779450 | MeWo: 53.8; COLO 792: 135; LOX IMVI: 44.0; SK-MEL-30: 199; WM3619: 125; SK-MEL-5: 284
- BI-D1870 and U73122 | MeWo: 70.4; COLO 792: 139; LOX IMVI: 160; SK-MEL-30: 166; WM3619: 138; SK-MEL-5: 92.7

For reference, 2 entries once more:

| Pair | MeWo | COLO 792 | LOX IMVI | SK-MEL-30 | WM3619 | SK-MEL-5 |
|---|---|---|---|---|---|---|
| U73122 and L-779450 | 57.6 | 110 | 131 | 97.4 | 262 | 453 |
| sunitinib and midostaurin | 124 | 276 | 91.7 | 344 | 176 | 115 |

Data from the primary screen of doi:10.1371/journal.pone.0140310, rounded.